Assay results: article PMC4359743
These are yes or no findings as the source states them, for the method shown. Binding seen in cells or lysates may run through a third protein. Here binding means that the protein was enriched with, or labelled near, the bait; the list need not be complete. Where a sequence is shown, tags or fusion partners need not be part of it.

The chains behind the UniProt entries cited, without tags or fusion partners.
UniProt O94986: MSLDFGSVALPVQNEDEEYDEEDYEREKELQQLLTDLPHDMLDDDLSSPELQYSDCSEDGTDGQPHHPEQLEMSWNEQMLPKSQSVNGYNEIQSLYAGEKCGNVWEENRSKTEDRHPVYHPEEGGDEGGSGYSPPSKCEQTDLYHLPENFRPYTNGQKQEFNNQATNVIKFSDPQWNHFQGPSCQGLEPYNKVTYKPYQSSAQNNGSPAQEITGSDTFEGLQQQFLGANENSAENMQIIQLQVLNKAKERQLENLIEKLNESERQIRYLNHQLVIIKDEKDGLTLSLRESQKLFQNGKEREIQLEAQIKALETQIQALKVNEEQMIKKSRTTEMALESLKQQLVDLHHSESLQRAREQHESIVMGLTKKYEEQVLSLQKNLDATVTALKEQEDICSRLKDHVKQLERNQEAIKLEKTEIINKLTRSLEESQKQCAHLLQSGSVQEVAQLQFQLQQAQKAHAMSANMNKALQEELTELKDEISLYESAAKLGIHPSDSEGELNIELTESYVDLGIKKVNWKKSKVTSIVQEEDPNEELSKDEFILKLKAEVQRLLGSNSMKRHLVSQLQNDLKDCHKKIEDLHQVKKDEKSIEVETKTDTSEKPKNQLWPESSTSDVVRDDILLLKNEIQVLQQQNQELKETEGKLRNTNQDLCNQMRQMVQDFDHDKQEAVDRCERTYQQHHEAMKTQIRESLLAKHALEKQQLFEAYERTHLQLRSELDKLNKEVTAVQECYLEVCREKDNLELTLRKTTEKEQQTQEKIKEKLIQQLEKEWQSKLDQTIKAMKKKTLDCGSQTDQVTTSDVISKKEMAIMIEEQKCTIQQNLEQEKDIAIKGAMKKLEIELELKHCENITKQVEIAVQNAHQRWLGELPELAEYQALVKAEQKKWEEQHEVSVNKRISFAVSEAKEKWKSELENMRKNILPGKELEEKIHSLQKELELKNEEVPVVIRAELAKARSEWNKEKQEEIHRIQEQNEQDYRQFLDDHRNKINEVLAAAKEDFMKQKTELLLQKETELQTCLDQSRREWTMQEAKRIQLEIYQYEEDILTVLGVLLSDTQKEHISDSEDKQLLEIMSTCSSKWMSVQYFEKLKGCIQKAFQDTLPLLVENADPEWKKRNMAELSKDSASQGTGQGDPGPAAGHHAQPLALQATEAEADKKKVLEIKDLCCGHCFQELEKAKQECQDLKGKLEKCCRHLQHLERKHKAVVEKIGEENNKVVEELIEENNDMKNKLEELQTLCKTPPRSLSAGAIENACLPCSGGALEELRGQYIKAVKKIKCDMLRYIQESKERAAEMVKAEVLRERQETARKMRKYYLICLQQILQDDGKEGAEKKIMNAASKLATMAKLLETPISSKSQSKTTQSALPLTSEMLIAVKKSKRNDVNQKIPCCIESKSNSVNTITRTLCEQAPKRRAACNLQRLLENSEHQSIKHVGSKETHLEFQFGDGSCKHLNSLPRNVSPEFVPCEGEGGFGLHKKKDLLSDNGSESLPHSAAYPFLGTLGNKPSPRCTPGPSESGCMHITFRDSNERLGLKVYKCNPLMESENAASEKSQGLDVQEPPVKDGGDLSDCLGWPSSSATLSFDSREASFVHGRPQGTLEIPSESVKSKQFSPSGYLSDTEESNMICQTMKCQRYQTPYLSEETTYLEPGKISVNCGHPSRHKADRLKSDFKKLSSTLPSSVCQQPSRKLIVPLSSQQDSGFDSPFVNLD

Target: T1, Zz-Plk4-His (recombinant double-tagged Plk4) (human) (UniProt O00444)
T1 sequence: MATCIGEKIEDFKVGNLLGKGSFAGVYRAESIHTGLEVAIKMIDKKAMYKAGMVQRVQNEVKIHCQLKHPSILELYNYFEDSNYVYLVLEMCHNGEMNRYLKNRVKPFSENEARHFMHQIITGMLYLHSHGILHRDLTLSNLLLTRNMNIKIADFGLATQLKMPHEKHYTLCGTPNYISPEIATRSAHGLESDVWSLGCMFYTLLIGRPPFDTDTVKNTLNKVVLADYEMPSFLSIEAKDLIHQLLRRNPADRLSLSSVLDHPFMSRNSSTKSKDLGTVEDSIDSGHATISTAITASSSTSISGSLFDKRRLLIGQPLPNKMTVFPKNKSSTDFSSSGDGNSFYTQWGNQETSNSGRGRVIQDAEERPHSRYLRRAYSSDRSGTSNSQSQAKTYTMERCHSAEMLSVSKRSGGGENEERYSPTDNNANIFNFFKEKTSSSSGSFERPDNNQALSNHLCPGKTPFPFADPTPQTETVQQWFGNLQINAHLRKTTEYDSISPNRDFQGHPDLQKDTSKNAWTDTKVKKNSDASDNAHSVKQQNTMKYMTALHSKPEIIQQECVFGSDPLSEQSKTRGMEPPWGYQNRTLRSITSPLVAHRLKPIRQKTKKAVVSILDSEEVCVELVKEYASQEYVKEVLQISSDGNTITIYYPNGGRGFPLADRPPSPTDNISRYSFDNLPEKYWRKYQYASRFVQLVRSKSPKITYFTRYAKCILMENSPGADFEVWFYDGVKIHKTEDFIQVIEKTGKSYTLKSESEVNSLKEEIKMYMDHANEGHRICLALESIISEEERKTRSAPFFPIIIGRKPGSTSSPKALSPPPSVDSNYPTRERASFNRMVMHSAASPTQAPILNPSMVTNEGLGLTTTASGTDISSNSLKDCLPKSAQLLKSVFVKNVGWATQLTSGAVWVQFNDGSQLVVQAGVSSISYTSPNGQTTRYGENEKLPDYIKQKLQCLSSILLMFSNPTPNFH
Experiment: affinity purification with mass spectrometry; 15 µg Zz-Plk4 incubated with 3 mg HeLa lysate (G1/S or mitotically arrested) for 2 h at 4°C, captured on rabbit IgG Sepharose by the Zz-tag; NP40 lysis buffer; eluted partners analysed by nanoLC-ESI-MS/MS; only the target purified

Cep152, endogenous (from UniProt O94986 1-1710)
binding: binds
